Experimental data reported in PubChem BioAssay AID1347426 (Functional Genomics Laboratory (NCATS/FGL), 2020).
The whole screen tested about 31,000 sequences, of which about 1,400 (4.5%) were called active.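 The calls were made as follows: active = median seed-adjusted z-score above 1 or below -1; inactive = the rest.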 The list shows a part of the results.

test: Novel Modifiers of Survival Motor Neuron (SMN) Protein: Gene Identification via Genome-wide siRNA Screen; settings: HEK293T SMN2-luciferase reporter, siRNA knockdown, 72 h; actives lie on both sides
Source text: Spinal muscular atrophy (SMA) is the most common neuromuscular autosomal recessive disorder and one of the leading genetic causes of infant death. SMA results from mutations inducing loss of function or deletion in the survival of motor neuron-1 gene (SMN1), leading to deficiency of the survival motor neuron (SMN) protein. Although a second nearly identical gene, SMN2, is retained in humans, its expression primarily produces an aberrantly spliced isoform that is largely unstable and quickly degraded. We performed a genome-wide RNAi screen using a cell-based reporter assay to identify genes and pathways that modulate SMN protein stability. The screen identified over 200 genes that led to the greatest increase or decrease in luciferase expression.
Using HEK293T cells stably expressing a luciferase reporter that combines the promoter and splicing based cassettes in tandem with the major portion of the native SMN2 cDNA with luciferase, we performed a genome-wide RNAi screen to identify modulators of SMN protein levels. Luciferase is expressed when full-length SMN protein is generated with luminescence signal proportional to SMN protein levels. Our luciferase-based reporter assay was used to screen Ambion Silencer Select Human Druggable Genome siRNA library (10418 genes, 3 unique siRNAs per gene) using lipid-based reverse transfection.
Briefly, 1 pmol of each siRNA was spotted to a well of a 384-well plate (Corning, Corning, NY) and 20 microL of serum-free DMEM containing […] of Lipofectamine RNAiMax (Life Technologies, Carlsbad, CA) was then added to each well. Transfected cells were maintained at 37 degrees C in 5% CO2 for 72 hours, 20 microL of ONE-Glo Reagent (Promega) was added to wells for luciferase quantification. Raw luminescence reads were normalized to Ambion(R) Silencer(R) Negative Control #2 siRNA, then log10 transformed. A robust statistical measure of median absolute deviation (MAD) to standardize siRNA activities from each screen. Common Seed Analysis was used to help prioritize clean hits as opposed to those appearing to arise from seed based off-target effects. Candidate modulators were defined as the genes having a MAD score greater than 1.0 or less than -1.0.

Sequence	median seed-adjusted z-score
GCUCCUUGCUACCAUAGUATT against CCBP2	inactive: -0.0896
GAAGGACAAUUCAUCGAUATT against MYH1	inactive: -0.567
GCAGAAGAAAGAACCCGUUTT against DYNC1I1	inactive: -0.716
CGCGCAAGGUUUUAGCUUUTT against FDXR	inactive: 0.6
ACACUGGAUUGUUCUUUUUTT against COMT	inactive: -0.0808
CCGACAUGCUGGGAGAUUATT against GPR56	inactive: -0.109
GCAACUACACGGCUUCUUUTT against SLC16A13	inactive: -0.0537
GCCUUCUACACUUACAUGATT against EVX1	active: 1
GCAGCUCCCGAUGUCCAAATT against HDHD1A	inactive: -0.937
GAAAGUCAGCUAGAUCCUATT against EPDR1	inactive: 0.369
ACUGUAAAAUAAUCGCUAATT against TLX2	inactive: -0.182
GACUGAAAAUUUUACUAGATT against RKHD4	inactive: 0.0683
CCAUGCUCACUGUCUCUUUTT against THBS3	inactive: 0.429
GAUCCGCACUGUGGAUAUATT against RAB13	inactive: -0.599
CAAUAGUCCUGAGACCGAATT against MYST3	inactive: -0.49
GUUAAGGGAUUAUAUGGAATT against LDHC	inactive: 0.537
GGAGGGACACCUUAAGGAATT against HSPA12A	inactive: 0.0319
GAAGGACUCUGCAUAUGAUTT against SLC2A14	active: -1.09
GGAUUCUCACUGGUCGCAATT against SLC20A2	inactive: -0.0546
GGAUCCAUCUGACCACAGATT against RFPL1	inactive: 0.195
AGUCAUAUUUGAAUGUCUATT against SLC6A12	inactive: -0.708
CUCAAGUACUUUACUCGGATT against LCN8	inactive: 0.112
GGAACUGCAUGCUGAAUGATT against AXL	inactive: -0.603

Part of the list above, bar-delimited.
Sequence | median seed-adjusted z-score
GCCUUCUACACUUACAUGATT against EVX1 | active: 1
GCAGCUCCCGAUGUCCAAATT against HDHD1A | inactive: -0.937

Next entries.

Sequence	median seed-adjusted z-score
UCUCUUCCAUUGCAGCUUATT against DHRS2	inactive: 0.35
GAAUGCAUCAUGUAGUAAATT against ZSCAN18	inactive: 0.125
CCUUCACAAUAGCAGCGGATT against TAP2	inactive: -0.768
CCUCAGUUGGAGUUUCUAATT against TBCEL	inactive: 0.567
GGAUCACGUCUAAACCAGUTT against GABRA1	inactive: -0.405
CACUUGAACGGACAUAUCATT against PATZ1	inactive: -0.57
CAAACACCCUAGAUGAUCUTT against S100G	inactive: -0.809
GAAUCAAGGUGUAAGAACATT against EPHA4	inactive: -0.0739
CACCUACUGUGAUGACAGATT against EPAS1	inactive: -0.166
GACCUUUUGUCAUCCCAUUTT against RUNX1T1	inactive: 0.181
GAGGAGUACGAGUUCCUGATT against ARHGDIA	inactive: 0.627
CAUUGGGCCUAGAAAUUCATT against CNKSR1	inactive: 0.217
CCGGUAUUAGAAUCAAAGATT against POLS	inactive: -0.334
CCGUAAACUUCAUAACAUUTT against DYRK1A	active: -1.3
GGAAUUAGGUAUAAGUUCATT against ADAMTS6	inactive: 0.023
GAGUAGAACUUUCCAAAGATT against SRPR	inactive: 0.242
GAAAGUUCAUAAUCGUGAUTT against ZFP28	inactive: 0.275
GAAUUGGGUCGAUCUGUGATT against DNAJC1	inactive: 0.134
CCACUUACUUCUUACACUUTT against XRCC2	inactive: 0
GGAGAUUUUGAGUCCUACATT against CAMK2A	inactive: 0.396
CCGUGGACCUGAUCAUCAATT against FASN	inactive: 0.282
GAGCCGUACUAUGACCUGATT against SSTR2	inactive: -0.162
GCCGCAUCCAUUACACUGATT against CACNA1E	inactive: 0.285

Sequence	median seed-adjusted z-score
CUUUUACAGCUGACGGAAATT against GZMA	inactive: -0.234
GGGUCAACCUCUUUACGGATT against EIF3B	inactive: -0.71
GAUCUACUCGGAUACCUUATT against INPP5A	inactive: -0.00941
CGAACUCUACCAAGCCUAUTT against EMILIN2	inactive: 0.726
AGCACAACUUGUUGAGAUATT against SAP30	inactive: -0.618
GAGUCAAACCAUGGAAUUATT against GYG1	inactive: 0.119
GCGAAUUGAUGACAUCGUUTT against CCT3	inactive: -0.416
CCUUGUCUGAACUUCCCAATT against ZNF444	inactive: -0.218
CCAUGAUCCCUGAUGCAGATT against HARS	inactive: -0.722
GGAUUUUGGAAUCCAAUGATT against ADAM18	inactive: -0.913
GUAUUUCAACAGAAAUGAUTT against CENTA1	inactive: -0.555
CCGCCCUUCUGACAACUCUTT against NCR2	inactive: -0.0526
AGUUCAUGCAAGAUCCAAUTT against BAT1	active: -1.49
CCAUCGAUAUUCAGACAGATT against CA14	inactive: -0.308
CGAGUAGACAAGAUUUUCATT against VSNL1	inactive: 0.0569
CCAUGACAACUUUCACUGATT against AGFG2	inactive: -0.289
GGACGUAGGAGGACUGUCATT against SYT5	inactive: 0.704
GAGUUCCUCUGGUCACUAUTT against TTC18	active: -1.15
GUAUAUCCGUGUAUCCUAUTT against TRPM1	inactive: -0.527
GGCAAGCUGUUUCGACCAATT against NCF2	inactive: -0.201
CCGGCACCAUUCUACCCAATT against ELA2B	inactive: -0.154
CAAUCGGCCUUUUACCAAUTT against KIF22	inactive: 0.283

As a working copy, part of the list above.
Sequence	median seed-adjusted z-score
GUAUUUCAACAGAAAUGAUTT against CENTA1	inactive: -0.555
CCGCCCUUCUGACAACUCUTT against NCR2	inactive: -0.0526
